Results deposited as PubChem BioAssay AID602196 (INSERM, 2012)
The deposit covers about 23,000 reagents; below is a part drawn at random. 455 of them (2%) were called active. 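Active includes both protection and sensitisation; some change values fall well beyond the stated -50 to +50 range.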 The numbers tell different reagents against one gene apart. Further read-outs or replicates are left out here. No sequences are given here. The record does not give: the amount of reagent.

Purpose: 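Knock-downs that protect lung cancer cells from cisplatin or sensitise them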
Cells: human A549 lung cancer cells
Reagents: siRNA pair against human genes
Timing: 48 h transfection before cisplatin; time from cisplatin to read-out not stated
Treatment: cisplatin at a dose killing half of control-siRNA cells; exact dose and duration not given
Detection: 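Cisplatin cell death as a shift from the 50% death seen with control siRNA; siRNAs toxic or growth-blocking alone scored 0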
Scale: two-siRNA summed score (-2 to +2): higher = both siRNAs protect from cisplatin killing; -2 means both sensitise
Hit rule: 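siRNAs harmful alone (LDH or WST-1) get 0; others get +1 for less and -1 for more cisplatin killing; genes are active when the two siRNAs give the same sign, summing to ±2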
Meaning of the calls: active = both siRNAs shift cisplatin killing the same way; inactive = no consistent shift, or siRNA harmful alone

CIMAP1A (GeneID 113746) gave two-siRNA summed score (-2 to +2) = 0; inactive. Depletion of UNC5CL (GeneID 222643) gave: two-siRNA summed score (-2 to +2) = 0; inactive. Depletion of LOC402094 resulted in: two-siRNA summed score (-2 to +2) = 0; inactive. After knock-down of DENND1B (GeneID 163486) #1, the screen gave two-siRNA summed score (-2 to +2) = 0; inactive. DENND1B (GeneID 163486) #2 scored two-siRNA summed score (-2 to +2) = 0; inactive. With knock-down of MGST2 (GeneID 4258), the screen gave two-siRNA summed score (-2 to +2) = 0; inactive.

After knock-down of EIPR1 (GeneID 7260), the screen gave two-siRNA summed score (-2 to +2) = 0; inactive. After knock-down of BCLAF1 (GeneID 9774), the screen gave two-siRNA summed score (-2 to +2) = 1; inactive. TP53BP1 (GeneID 7158) showed two-siRNA summed score (-2 to +2) = 0; inactive. With knock-down of LOC400724 the results were two-siRNA summed score (-2 to +2) = 0; inactive. Against HENMT1 (GeneID 113802), the values are two-siRNA summed score (-2 to +2) = -1; inactive.

Individual results from the entries so far.
Entry for HENMT1 (GeneID 113802) under “two-siRNA summed score (-2 to +2)”: -1
Entry of BCLAF1 (GeneID 9774) in “Outcome”: inactive

Continued.
IGF2 (GeneID 3481) #1 gave two-siRNA summed score (-2 to +2) = -1; inactive. For IGF2 (GeneID 3481) #2, the entry reads two-siRNA summed score (-2 to +2) = 0; inactive. Against CZ1P-ASNS (GeneID 107986827), the values are two-siRNA summed score (-2 to +2) = 0; inactive. Knock-down of SUGT1P1 (GeneID 441394) gave: two-siRNA summed score (-2 to +2) = 0; inactive. After knock-down of LOC441117, the screen gave two-siRNA summed score (-2 to +2) = 1; inactive. OR8U1 (GeneID 219417) gave two-siRNA summed score (-2 to +2) = 0; inactive.

Against ACAT2 (GeneID 39) the deposit lists two-siRNA summed score (-2 to +2) = -1; inactive. After knock-down of ETV3 (GeneID 2117), the screen gave two-siRNA summed score (-2 to +2) = 1; inactive. Against MAML1 (GeneID 9794) the deposit lists two-siRNA summed score (-2 to +2) = 0; inactive. ZMYND10 (GeneID 51364) scored two-siRNA summed score (-2 to +2) = 0; inactive. Against CTSL (GeneID 1514) the deposit lists two-siRNA summed score (-2 to +2) = -1; inactive. After knock-down of CLIC4 (GeneID 25932), the screen gave two-siRNA summed score (-2 to +2) = -1; inactive.

CASP4 (GeneID 837) scored two-siRNA summed score (-2 to +2) = -1; inactive. For LOC148206 the deposit lists two-siRNA summed score (-2 to +2) = 0; inactive. Against HS3ST6 (GeneID 64711), the values are two-siRNA summed score (-2 to +2) = 0; inactive. CAV2 (GeneID 858) showed two-siRNA summed score (-2 to +2) = 0; inactive. For ZNF37BP (GeneID 100129482), the values are two-siRNA summed score (-2 to +2) = 0; inactive. For LOC389264 the deposit lists two-siRNA summed score (-2 to +2) = 1; inactive.

After knock-down of NFU1 (GeneID 27247) the results were two-siRNA summed score (-2 to +2) = 1; inactive. For RTN2 (GeneID 6253), the values are two-siRNA summed score (-2 to +2) = 0; inactive.
